Measured values taken from publication doi:10.1101/2021.10.01.462544.

T1: BD-AtCGL160N, AtCGL160N (29-206 aa) fused to the GAL4 DNA-binding domain (Arabidopsis thaliana) (UniProt O82279)
T1 sequence: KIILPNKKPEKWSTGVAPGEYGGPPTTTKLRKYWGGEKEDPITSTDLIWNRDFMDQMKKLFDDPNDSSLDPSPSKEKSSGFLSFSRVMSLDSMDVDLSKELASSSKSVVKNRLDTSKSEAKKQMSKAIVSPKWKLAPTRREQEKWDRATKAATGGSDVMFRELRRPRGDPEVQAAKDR

B1: AtCGL160, endogenous in wild-type (Col-0) thylakoids (protein, UniProt O82279 47-350)
chain: GEYGGPPTTTKLRKYWGGEKEDPITSTDLIWNRDFMDQMKKLFDDPNDSSLDPSPSKEKSSGFLSFSRVMSLDSMDVDLSKELASSSKSVVKNRLDTSKSEAKKQMSKAIVSPKWKLAPTRREQEKWDRATKAATGGSDVMFRELRRPRGDPEVQAAKDREQYFKLKNKIQVLTLGIGGVGLVSAYISYTPEIALSFGAGLLGSLAYMRMLGNSVDAMADGARGVAKGAANQPRLLVPVVLVMIFNRWNAILVPEYGFMHLELIPMLVGFFTYKIATFFQAIEEAISITTQKPESISPDTQASD

What follows are molecules tested against T1, BD-AtCGL160N, AtCGL160N (29-206 aa) fused to the GAL4 DNA-binding domain (Arabidopsis thaliana) (assay: two-hybrid).

binding	Molecule
no binding	AD-AtCGLD11, CF1 assembly factor AtCGLD11 fused to the GAL4 activation domain (Arabidopsis thaliana)
no binding	AD-CF1-βI, domain I of CF1-β fused to the GAL4 activation domain (domain or fragment)
no binding	AD-CF1-βII, domain II of CF1-β fused to the GAL4 activation domain (domain or fragment)
binds	AD-CF1-βIII, domain III of CF1-β fused to the GAL4 activation domain (domain or fragment)
no binding	AD-CF1-γ, CF1-γ fused to the GAL4 activation domain

The molecules below were run against CF1-CFO holo-complex (chloroplast ATP synthase), endogenous in wild-type thylakoids (Arabidopsis thaliana (endogenous in Col-0 thylakoids)) (assay: cross-linking).

binding	Molecule
binds	B1

Results are given in words; binding and its absence hold for the method and conditions named. Binding can be weak; no strength is given. For part of these data: Where a sequence is shown, tags or fusion partners need not be part of it. For part of these data: Binding seen in cells or lysates may run through a third protein.
